Paper PMC8242032, “Non-canonical function of DGCR8 in DNA double-strand break repair signaling and tumor radioresistance” (Nature Communications, 2021)
Results are given in words; binding and its absence hold for the method and conditions named. In cells and extracts the contact can be indirect. Some results given as binding are weak or reduced against the parent protein; the word gives no strength. For some assays here: Where a sequence is shown, tags or fusion partners need not be part of it.

Amino acid sequences for entries named in this document (tags omitted).
UniProt Q14676: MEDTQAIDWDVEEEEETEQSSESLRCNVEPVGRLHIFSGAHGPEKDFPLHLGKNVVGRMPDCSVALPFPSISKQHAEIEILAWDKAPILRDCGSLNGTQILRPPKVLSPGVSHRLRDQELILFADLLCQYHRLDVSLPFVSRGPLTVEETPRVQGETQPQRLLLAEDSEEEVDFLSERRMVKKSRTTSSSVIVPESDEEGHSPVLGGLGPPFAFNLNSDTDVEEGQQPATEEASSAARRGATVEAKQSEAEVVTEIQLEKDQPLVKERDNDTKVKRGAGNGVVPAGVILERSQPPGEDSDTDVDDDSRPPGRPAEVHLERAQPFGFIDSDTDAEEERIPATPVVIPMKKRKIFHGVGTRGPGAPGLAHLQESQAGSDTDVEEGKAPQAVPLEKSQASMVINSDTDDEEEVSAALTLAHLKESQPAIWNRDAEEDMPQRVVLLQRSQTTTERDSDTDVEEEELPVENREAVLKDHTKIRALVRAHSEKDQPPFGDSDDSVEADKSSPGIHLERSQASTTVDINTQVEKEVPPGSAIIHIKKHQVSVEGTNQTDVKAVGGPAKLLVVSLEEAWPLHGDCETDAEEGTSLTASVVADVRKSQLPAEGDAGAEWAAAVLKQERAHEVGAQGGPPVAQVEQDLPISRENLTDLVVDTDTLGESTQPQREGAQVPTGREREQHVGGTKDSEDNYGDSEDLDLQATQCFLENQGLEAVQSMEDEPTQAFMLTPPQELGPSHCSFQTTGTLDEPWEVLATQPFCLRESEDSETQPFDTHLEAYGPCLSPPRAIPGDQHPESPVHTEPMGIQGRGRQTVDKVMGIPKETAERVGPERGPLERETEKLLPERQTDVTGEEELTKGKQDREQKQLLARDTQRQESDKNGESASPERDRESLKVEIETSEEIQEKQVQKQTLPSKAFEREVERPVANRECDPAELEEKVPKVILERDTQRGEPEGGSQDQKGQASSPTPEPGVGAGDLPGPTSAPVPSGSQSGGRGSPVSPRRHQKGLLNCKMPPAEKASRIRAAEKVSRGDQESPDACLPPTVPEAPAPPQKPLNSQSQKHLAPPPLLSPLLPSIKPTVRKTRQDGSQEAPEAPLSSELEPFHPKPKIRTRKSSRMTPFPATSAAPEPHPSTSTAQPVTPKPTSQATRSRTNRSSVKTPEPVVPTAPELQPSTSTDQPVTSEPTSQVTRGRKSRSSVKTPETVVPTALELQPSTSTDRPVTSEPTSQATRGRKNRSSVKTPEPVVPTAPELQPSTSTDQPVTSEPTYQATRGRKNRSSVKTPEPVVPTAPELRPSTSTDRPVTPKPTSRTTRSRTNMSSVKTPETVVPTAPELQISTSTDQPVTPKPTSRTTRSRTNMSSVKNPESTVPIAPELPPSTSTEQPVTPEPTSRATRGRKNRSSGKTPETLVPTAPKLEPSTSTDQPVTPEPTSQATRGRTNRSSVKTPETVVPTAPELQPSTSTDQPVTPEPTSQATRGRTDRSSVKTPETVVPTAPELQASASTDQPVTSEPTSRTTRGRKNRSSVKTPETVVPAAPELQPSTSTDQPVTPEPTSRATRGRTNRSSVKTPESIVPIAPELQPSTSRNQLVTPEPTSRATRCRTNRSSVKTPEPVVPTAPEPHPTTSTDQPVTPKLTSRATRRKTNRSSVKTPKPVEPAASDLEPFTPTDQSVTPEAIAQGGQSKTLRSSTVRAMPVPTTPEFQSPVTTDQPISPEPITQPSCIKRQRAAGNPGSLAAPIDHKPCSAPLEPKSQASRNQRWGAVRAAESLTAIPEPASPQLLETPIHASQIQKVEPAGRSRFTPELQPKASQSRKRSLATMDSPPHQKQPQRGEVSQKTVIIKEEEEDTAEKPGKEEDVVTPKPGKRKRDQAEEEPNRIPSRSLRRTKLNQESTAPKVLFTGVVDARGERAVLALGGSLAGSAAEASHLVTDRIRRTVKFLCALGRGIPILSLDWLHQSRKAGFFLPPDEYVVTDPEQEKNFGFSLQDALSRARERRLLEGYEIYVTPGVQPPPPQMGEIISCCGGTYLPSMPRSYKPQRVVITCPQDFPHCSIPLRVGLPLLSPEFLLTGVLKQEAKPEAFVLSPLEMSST

T1: MYC-DGCR8 S677D (phosphomimetic mutant) (human) (UniProt Q8WYQ5)
T1 sequence: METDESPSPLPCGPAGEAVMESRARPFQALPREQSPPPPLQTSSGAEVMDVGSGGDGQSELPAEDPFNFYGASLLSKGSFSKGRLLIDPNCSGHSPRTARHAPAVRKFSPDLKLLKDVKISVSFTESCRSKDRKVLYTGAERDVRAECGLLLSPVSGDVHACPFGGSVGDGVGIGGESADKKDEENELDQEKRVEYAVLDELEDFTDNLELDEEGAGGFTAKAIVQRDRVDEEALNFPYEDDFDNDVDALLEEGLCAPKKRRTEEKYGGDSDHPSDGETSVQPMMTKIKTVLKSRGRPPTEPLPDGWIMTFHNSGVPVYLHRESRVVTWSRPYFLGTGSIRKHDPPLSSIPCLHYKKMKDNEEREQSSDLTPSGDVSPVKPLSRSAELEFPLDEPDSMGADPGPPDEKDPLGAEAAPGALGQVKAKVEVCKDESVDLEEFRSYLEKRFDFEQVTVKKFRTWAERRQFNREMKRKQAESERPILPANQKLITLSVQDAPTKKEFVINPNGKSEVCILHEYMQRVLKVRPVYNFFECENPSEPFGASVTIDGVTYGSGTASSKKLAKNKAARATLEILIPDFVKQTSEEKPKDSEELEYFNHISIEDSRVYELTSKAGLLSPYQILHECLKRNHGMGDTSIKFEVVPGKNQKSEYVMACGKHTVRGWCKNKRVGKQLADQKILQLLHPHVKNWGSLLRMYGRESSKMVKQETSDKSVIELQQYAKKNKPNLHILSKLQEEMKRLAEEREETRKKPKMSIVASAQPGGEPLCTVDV

T2: MYC-DGCR8 (wild-type, full-length) (human) (UniProt Q8WYQ5)
T2 sequence: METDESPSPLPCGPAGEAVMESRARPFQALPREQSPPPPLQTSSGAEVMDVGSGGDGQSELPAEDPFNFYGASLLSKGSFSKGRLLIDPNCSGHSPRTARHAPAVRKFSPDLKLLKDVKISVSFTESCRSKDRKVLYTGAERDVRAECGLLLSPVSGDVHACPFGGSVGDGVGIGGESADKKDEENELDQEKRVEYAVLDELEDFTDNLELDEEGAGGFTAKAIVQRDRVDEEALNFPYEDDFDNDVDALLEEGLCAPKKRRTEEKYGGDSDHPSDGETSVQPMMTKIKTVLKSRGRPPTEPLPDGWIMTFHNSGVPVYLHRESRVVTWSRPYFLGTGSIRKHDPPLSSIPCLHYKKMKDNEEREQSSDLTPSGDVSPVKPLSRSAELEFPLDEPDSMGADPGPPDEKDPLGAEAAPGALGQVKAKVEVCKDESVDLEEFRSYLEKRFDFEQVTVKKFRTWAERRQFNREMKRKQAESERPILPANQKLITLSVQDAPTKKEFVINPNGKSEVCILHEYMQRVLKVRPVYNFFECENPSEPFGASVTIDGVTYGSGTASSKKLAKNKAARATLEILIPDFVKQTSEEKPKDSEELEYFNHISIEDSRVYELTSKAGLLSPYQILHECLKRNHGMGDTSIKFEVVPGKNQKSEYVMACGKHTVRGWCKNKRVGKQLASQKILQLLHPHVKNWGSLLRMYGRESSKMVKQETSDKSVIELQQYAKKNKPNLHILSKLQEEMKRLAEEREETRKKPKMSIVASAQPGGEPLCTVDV

T3: MYC-DGCR8 S677A (phosphodeficient mutant) (human) (UniProt Q8WYQ5)
T3 sequence: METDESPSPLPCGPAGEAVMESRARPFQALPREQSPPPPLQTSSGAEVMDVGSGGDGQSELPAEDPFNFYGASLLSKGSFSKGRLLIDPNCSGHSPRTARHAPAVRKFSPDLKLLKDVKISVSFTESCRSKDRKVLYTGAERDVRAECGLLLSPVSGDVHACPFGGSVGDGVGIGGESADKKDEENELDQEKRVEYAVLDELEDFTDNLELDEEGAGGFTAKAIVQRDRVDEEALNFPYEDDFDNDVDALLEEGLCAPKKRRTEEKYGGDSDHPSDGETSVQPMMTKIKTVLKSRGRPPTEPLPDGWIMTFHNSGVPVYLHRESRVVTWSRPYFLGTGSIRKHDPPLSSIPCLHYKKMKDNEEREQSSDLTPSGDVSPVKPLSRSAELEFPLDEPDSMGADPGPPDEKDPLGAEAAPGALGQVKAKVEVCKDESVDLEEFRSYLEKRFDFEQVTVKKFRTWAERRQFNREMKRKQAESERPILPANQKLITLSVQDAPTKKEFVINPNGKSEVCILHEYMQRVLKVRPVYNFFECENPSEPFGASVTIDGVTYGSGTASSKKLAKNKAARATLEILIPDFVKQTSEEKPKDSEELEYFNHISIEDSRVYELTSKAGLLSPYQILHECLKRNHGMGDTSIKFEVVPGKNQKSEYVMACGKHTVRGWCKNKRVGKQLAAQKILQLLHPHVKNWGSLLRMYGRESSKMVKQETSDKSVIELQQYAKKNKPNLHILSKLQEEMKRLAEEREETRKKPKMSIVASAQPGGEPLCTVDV

T4: RNF8 (endogenous) (human (endogenous in LM2)) (UniProt O76064)
T4 sequence: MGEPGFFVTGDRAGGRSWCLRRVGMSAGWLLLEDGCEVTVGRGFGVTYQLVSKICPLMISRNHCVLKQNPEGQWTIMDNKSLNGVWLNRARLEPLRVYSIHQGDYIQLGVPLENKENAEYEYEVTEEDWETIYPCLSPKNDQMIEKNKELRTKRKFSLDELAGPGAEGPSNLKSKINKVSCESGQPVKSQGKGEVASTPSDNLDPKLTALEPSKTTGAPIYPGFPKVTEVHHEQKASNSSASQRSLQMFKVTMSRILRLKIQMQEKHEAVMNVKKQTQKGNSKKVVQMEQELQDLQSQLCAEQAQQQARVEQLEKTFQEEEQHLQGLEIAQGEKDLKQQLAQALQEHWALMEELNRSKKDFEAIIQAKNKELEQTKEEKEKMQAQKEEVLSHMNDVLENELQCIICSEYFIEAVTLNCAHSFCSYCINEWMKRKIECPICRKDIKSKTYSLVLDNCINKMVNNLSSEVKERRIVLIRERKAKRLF

T5: DGCR8 (endogenous) (human (endogenous in LM2)) (UniProt Q8WYQ5)
T5 sequence: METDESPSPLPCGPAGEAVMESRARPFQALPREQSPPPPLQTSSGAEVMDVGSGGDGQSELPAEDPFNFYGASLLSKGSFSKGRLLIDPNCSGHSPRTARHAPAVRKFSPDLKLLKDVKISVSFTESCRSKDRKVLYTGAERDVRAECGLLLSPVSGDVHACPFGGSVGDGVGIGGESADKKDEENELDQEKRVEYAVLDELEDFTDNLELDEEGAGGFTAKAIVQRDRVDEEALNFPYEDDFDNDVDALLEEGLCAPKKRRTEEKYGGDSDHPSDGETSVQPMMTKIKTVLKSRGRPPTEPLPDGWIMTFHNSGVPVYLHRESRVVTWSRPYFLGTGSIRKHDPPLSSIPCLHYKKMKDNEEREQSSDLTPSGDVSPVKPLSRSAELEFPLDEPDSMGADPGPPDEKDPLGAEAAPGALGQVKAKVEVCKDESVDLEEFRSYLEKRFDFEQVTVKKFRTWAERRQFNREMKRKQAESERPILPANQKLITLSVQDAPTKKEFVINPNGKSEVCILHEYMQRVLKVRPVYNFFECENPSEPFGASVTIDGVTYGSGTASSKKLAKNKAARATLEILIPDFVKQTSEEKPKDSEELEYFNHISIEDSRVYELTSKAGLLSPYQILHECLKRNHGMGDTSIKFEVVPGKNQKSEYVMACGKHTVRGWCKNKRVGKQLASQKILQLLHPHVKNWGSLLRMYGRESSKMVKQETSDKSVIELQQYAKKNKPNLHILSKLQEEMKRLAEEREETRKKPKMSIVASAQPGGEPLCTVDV


Legend:
[1] = target: T1, MYC-DGCR8 S677D (phosphomimetic mutant) (human); assay: co-IP; MYC-tagged DGCR8 (WT, S677A or S677D) overexpressed in LM2 cells, with or without IR (8 Gy followed by 1 h or 8 h); pulldown with anti-MYC agarose beads, 4 °C, 2 h; immunoblotting
[2] = target: T2, MYC-DGCR8 (wild-type, full-length) (human); assay: as above
[3] = target: T3, MYC-DGCR8 S677A (phosphodeficient mutant) (human); assay: as above
[4] = target: T4, RNF8 (endogenous) (human (endogenous in LM2)); assay: co-IP; endogenous proteins, control LM2 cells, IR 8 Gy followed by 1 h; lysed in CHAPS buffer; immunoprecipitation with an antibody against RNF168 or RNF8
[5] = target: T2, MYC-DGCR8 (wild-type, full-length) (human); assay: co-IP; DGCR8 co-IP in HEK293T cells with or without IR (Supplementary Fig. 2c; details not shown)
[6] = target: T5, DGCR8 (endogenous) (human (endogenous in LM2)); assay: co-IP; chromatin fractions of LM2 cells (IR 8 Gy followed by 1 h), with or without MNase treatment, immunoprecipitated with a DGCR8-specific antibody
[7] = target: T5, DGCR8 (endogenous) (human (endogenous in LM2)); assay: co-IP; endogenous proteins; DGCR8 immunoprecipitated with a DGCR8-specific antibody from LM2 (and LM2-R) cells, with or without 8 Gy IR followed by 8 h; CHAPS buffer

binding [1]	binding [2]	binding [3]	binding [4]	binding [5]	binding [6]	binding [7]	Molecule
binds	binds	no binding	binds	binds	binds		MDC1 (endogenous) (from UniProt Q14676 1-2089)
binds	binds					binds	USP51 (endogenous) (enzyme, UniProt Q70EK9 1-711) MAQVRETSLPSGSGVRWISGGGGGASPEEAVEKAGKMEEAAAGATKASSRREAEEMKLEPLQEREPAPEENLTWSSSGGDEKVLPSIPLRCHSSSSPVCPRRKPRPRPQPRARSRSQPGLSAPPPPPARPPPPPPPPPPPAPRPRAWRGSRRRSRPGSRPQTRRSCSGDLDGSGDPGGLGDWLLEVEFGQGPTGCSHVESFKVGKNWQKNLRLIYQRFVWSGTPETRKRKAKSCICHVCSTHMNRLHSCLSCVFFGCFTEKHIHKHAETKQHHLAVDLYHGVIYCFMCKDYVYDKDIEQIAKETKEKILRLLTSTSTDVSHQQFMTSGFEDKQSTCETKEQEPKLVKPKKKRRKKSVYTVGLRGLINLGNTCFMNCIVQALTHIPLLKDFFLSDKHKCIMTSPSLCLVCEMSSLFHAMYSGSRTPHIPYKLLHLIWIHAEHLAGYRQQDAHEFLIAILDVLHRHSKDDSGGQEANNPNCCNCIIDQIFTGGLQSDVTCQACHSVSTTIDPCWDISLDLPGSCATFDSQNPERADSTVSRDDHIPGIPSLTDCLQWFTRPEHLGSSAKIKCNSCQSYQESTKQLTMKKLPIVACFHLKRFEHVGKQRRKINTFISFPLELDMTPFLASTKESRMKEGQPPTDCVPNENKYSLFAVINHHGTLESGHYTSFIRQQKDQWFSCDDAIITKATIEDLLYSEGYLLFYHKQGLEKD
binds	binds	no binding		binds	binds		RNF8 (endogenous) (enzyme, UniProt O76064 1-485) MGEPGFFVTGDRAGGRSWCLRRVGMSAGWLLLEDGCEVTVGRGFGVTYQLVSKICPLMISRNHCVLKQNPEGQWTIMDNKSLNGVWLNRARLEPLRVYSIHQGDYIQLGVPLENKENAEYEYEVTEEDWETIYPCLSPKNDQMIEKNKELRTKRKFSLDELAGPGAEGPSNLKSKINKVSCESGQPVKSQGKGEVASTPSDNLDPKLTALEPSKTTGAPIYPGFPKVTEVHHEQKASNSSASQRSLQMFKVTMSRILRLKIQMQEKHEAVMNVKKQTQKGNSKKVVQMEQELQDLQSQLCAEQAQQQARVEQLEKTFQEEEQHLQGLEIAQGEKDLKQQLAQALQEHWALMEELNRSKKDFEAIIQAKNKELEQTKEEKEKMQAQKEEVLSHMNDVLENELQCIICSEYFIEAVTLNCAHSFCSYCINEWMKRKIECPICRKDIKSKTYSLVLDNCINKMVNNLSSEVKERRIVLIRERKAKRLF
